The source of these data is patent US20200345863 (published 2020).

The data set can be described thus: general procedure: Fmoc solid-phase peptide synthesis; NovaGEL Rink Amide (0.63 mmol/g); 2-chlorotrityl chloride (1.1 mmol/g); Ramage ChemMatrix ([…]); HATU/DIPEA; bromoacetic acid/diisopropylcarbodiimide (submonomer). To be noted: for conjugation yield: conjugation step; for isolated mass / isolated yield: whole synthesis; for isolated yield: based on initial resin loading, scale of the general procedure typically 500 mg or 1000 mg resin; for step yield: late stage modification step.

In turn, Fmoc-D-Lys(glucuronideMMAE)-PSAR6 showed a conjugation yield of 38%.

Substance Fmoc-D-Lys(glucuronideMMAE)-PSAR12 returned a conjugation yield of 28%.

For MAL-Glu(glucuronideMMAE)-CH2—CH2—PSAR6, the isolated mass was determined as 5.8 mg and the isolated yield was determined as 14%.

The substance MAL-Glu(glucuronideMMAE)-CH2—CH2—PSAR12 showed an isolated mass of 4.6 mg and an isolated yield of 20%.

In turn, MAL-Glu(glucuronideMMAE)-CH2—CH2—PSAR18 showed an isolated mass of 2.4 mg and an isolated yield of 14%.

The substance MAL-Lys(glucuronideMMAE)-PSAR6 yielded a step yield of 52%.

MAL-Lys(glucuronideMMAE)-PSAR12 had a step yield of 51%.
